Consider two substances from patent US20140213759 (published 2014).

Square brackets hold non-standard residues; d marks the D form. * marks the point of attachment. Asn(Trt) = N[C@@H](CC(=O)NC(c1ccccc1)(c1ccccc1)c1ccccc1)C(=O)O; Boc = CC(C)(C)OC(=O)*; tBu = CC(C)(C)*

This series in a line: peptide synthesis. To be noted: whole synthesis.

Regarding “Boc-Ser(Bzl)-Phe-Pro-Ile-Leu-Pro-Pro-Glu(OBzl)-Glu(OBzl)-Tyr(Bzl)-Leu(OBzl)”, the outcome is “it was not possible to collect the obtained precipitate”. In the case of H-LW(Boc)V[Asn(Trt)]S(tBu)-NH2, the “crude HPLC purity” value reads like this: (run 1) 79%; (run 2) 49%.
